According to article PMC6034753:
No constants are given. Whether binding was seen depends on the method and setting. In cells and extracts the contact can be indirect. Binding can be weak; no strength is given. For some assays here: Sequences can lack the tags named with a protein.

B1: Meq, endogenous in MSB-1 cells (protein, UniProt Q9DGW5 1-339)
chain: MSQEPEPGAMPYSPADDPSPLDLSLGSTSRRKKRKSHDIPNSPSKHPFPDGLSEEEKQKLERRRKRNRDAARRRRRKQTDYVDKLHEACEELQRANEHLRKEIRDLRTECTSLRVQLACHEPVCPMAVPLTVTLGLLTTPHDPVPEPPICTPPPPSPDEPNAPHCSGSQPPICTPPPPDTEELCAQLCSTPPPPISTPHIIYAPGPSPLQPPICTPAPPDAEELCAQLCSTPPPPICTPHSLFCPPQPPSPEGIFPALCPVTEPCTPPSPGTVYAQLCPVGQVPLFTPSPPHPAPEPERLYARLTEDPEQDSLYSGQIYTQFPSDTQSTVWWFPGDGRP
B2: Meq full length (339 aa), pcDNA3.1-Meq (protein, UniProt Q9DGW5 1-339)
chain: B1 chain
B3: N-terminal HA tagged full length Meq (1-339) (protein, UniProt Q9DGW5 1-339)
chain: B1 chain
B4: N-terminal HA tagged C-terminal truncated Meq 1-130 (domain or fragment, UniProt Q9DGW5 1-130)
chain: MSQEPEPGAMPYSPADDPSPLDLSLGSTSRRKKRKSHDIPNSPSKHPFPDGLSEEEKQKLERRRKRNRDAARRRRRKQTDYVDKLHEACEELQRANEHLRKEIRDLRTECTSLRVQLACHEPVCPMAVPL
B5: N-terminal HA tagged C-terminal truncated Meq 1-80 (domain or fragment, UniProt Q9DGW5 1-80)
chain: MSQEPEPGAMPYSPADDPSPLDLSLGSTSRRKKRKSHDIPNSPSKHPFPDGLSEEEKQKLERRRKRNRDAARRRRRKQTD
B6: N-terminal HA tagged C-terminal truncated Meq 1-170 (domain or fragment, UniProt Q9DGW5 1-170)
chain: MSQEPEPGAMPYSPADDPSPLDLSLGSTSRRKKRKSHDIPNSPSKHPFPDGLSEEEKQKLERRRKRNRDAARRRRRKQTDYVDKLHEACEELQRANEHLRKEIRDLRTECTSLRVQLACHEPVCPMAVPLTVTLGLLTTPHDPVPEPPICTPPPPSPDEPNAPHCSGSQP
B7: N-terminal HA tagged C-terminal truncated Meq 1-140 (domain or fragment, UniProt Q9DGW5 1-140)
chain: MSQEPEPGAMPYSPADDPSPLDLSLGSTSRRKKRKSHDIPNSPSKHPFPDGLSEEEKQKLERRRKRNRDAARRRRRKQTDYVDKLHEACEELQRANEHLRKEIRDLRTECTSLRVQLACHEPVCPMAVPLTVTLGLLTTP

Legend:
[1] = target: T1, Meq full length (339 aa), pcDNA3.1-Meq (Marek's disease virus) (UniProt Q9DGW5); test: co-IP; DF-1 cells co-transfected with Meq (wild type or mutant) and FLAG-apoptin, lysed after 24-48 h, pre-cleared; precipitated with rabbit anti-Meq (blot FLAG) or anti-FLAG (blot monoclonal Meq) and protein-G sepharose beads; rabbit anti-mouse as isotype control
T1 sequence: B1 chain

[2] = target: N-terminal GST-apoptin fusion protein (chicken anemia virus); test: pull-down; GST-apoptin on glutathione sepharose beads incubated with MSB-1 cell lysate; western blot with anti-Meq monoclonal antibody FD7; GST as negative control; only the target purified
[3] = target: N-terminal FLAG-tagged full length apoptin (pcDNA3.1) (chicken anemia virus); test: co-IP; DF-1 cells co-transfected with Meq (wild type or mutant) and FLAG-apoptin, lysed after 24-48 h, pre-cleared; precipitated with rabbit anti-Meq (blot FLAG) or anti-FLAG (blot monoclonal Meq) and protein-G sepharose beads; rabbit anti-mouse as isotype control
[4] = target: N-terminal FLAG-tagged full length apoptin (pcDNA3.1) (chicken anemia virus); test: co-IP; DF-1 cells co-transfected with N-terminal HA-tagged Meq (full length or C-terminal truncations) and FLAG-apoptin; precipitated with anti-Meq or anti-FLAG; blot with HA-HRP conjugate antibody; mouse anti-Myc as isotype control

Molecule	binding [4]	other results
N-terminal FLAG-tagged full length apoptin (pcDNA3.1) (chicken anemia virus)	–	binding [1]: binds
B1	–	binding [2]: binds
B2	–	binding [3]: binds
B3	binds	–
B4	no binding	–
B5	no binding	–
B6	binds	–
B7	binds	–
